# From the supplement of paper PMC12067093, “Discovery and optimisation of a covalent ligand for TRIM25 and its application to targeted protein ubiquitination” (Chemical Science, 2025)
# The list shows a part of the results.
# Compound: CC1Cc2ccccc2N1C(=O)C1CCCN(C1)C(=O)CCl (mixture of isomers) [TRIM25 ligand 11 (diastereomer mixture)]
# Experiment: probe-labelled cysteine peptide fold change vs DMSO (competition) (log2 fold change); higher = less target engagement (more negative = stronger competition)
# Conditions: THP-1, incubation time: 4 h
# 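Further: competitive chemoproteomic profiling in live THP-1 cells with an iodoacetamide desthiobiotin (IA-DTB) probe, comparing probe-labelled peptide intensities in compound-treated cells against DMSO-treated controls.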
target,measurement,setting,value
ZC3H13_Q5T200_1666_LSQSSIQQELCVS (UniProt Q5T200),probe-labelled cysteine peptide fold change,10 µM,0.117
same,probe-labelled cysteine peptide fold change,50 µM,-0.163
ZFAND1_Q8TCF1_33_DFLPFVCDDCSGIFCLEHR (UniProt Q8TCF1),probe-labelled cysteine peptide fold change,10 µM,-0.0351
same,probe-labelled cysteine peptide fold change,50 µM,0.198
XRN1_Q8IZH2_16_YPCLSEVVK (UniProt Q8IZH2),probe-labelled cysteine peptide fold change,10 µM,0.0639
same,probe-labelled cysteine peptide fold change,50 µM,0.0149
ZC3H10_Q96K80_79_NEFIFCHDFQNK (UniProt Q96K80),probe-labelled cysteine peptide fold change,10 µM,-0.14
same,probe-labelled cysteine peptide fold change,50 µM,-0.0316
ZBED4_O75132_599_KPTNLGTSCLLR (UniProt O75132),probe-labelled cysteine peptide fold change,10 µM,0.0177
same,probe-labelled cysteine peptide fold change,50 µM,-0.0308
ZC3HC1_Q86WB0_5_AAPCEGQAFAVGVEK (UniProt Q86WB0),probe-labelled cysteine peptide fold change,10 µM,0.0638
same,probe-labelled cysteine peptide fold change,50 µM,-0.0821
XPNPEP1_Q9NQW7_582_ECDWLNNYHLTCR (UniProt Q9NQW7),probe-labelled cysteine peptide fold change,10 µM,0.107
same,probe-labelled cysteine peptide fold change,50 µM,0.0195
ZBTB7A_O95365_123_LLEIPAVSHVCADLLDR (UniProt O95365),probe-labelled cysteine peptide fold change,10 µM,-0.168
same,probe-labelled cysteine peptide fold change,50 µM,0.0262
XPO5_Q9HAV4_10_AMDQVNALCEQLVK (UniProt Q9HAV4),probe-labelled cysteine peptide fold change,10 µM,0.118
same,probe-labelled cysteine peptide fold change,50 µM,-0.00124
ZBTB34_Q8NCN2_402_LHMGITPFVCK (UniProt Q8NCN2),probe-labelled cysteine peptide fold change,10 µM,-0.0027
same,probe-labelled cysteine peptide fold change,50 µM,0.0821
YME1L1_Q96TA2_433_ANAPCVIFIDELDSVGGK (UniProt Q96TA2),probe-labelled cysteine peptide fold change,10 µM,0.021
same,probe-labelled cysteine peptide fold change,50 µM,0.104
YWHAB_P31946_191_ACSLAK (UniProt P31946),probe-labelled cysteine peptide fold change,10 µM,-0.111
same,probe-labelled cysteine peptide fold change,50 µM,0.00871
YTHDC2_Q9H6S0_777_MPLQELCLHTK (UniProt Q9H6S0),probe-labelled cysteine peptide fold change,10 µM,-0.0952
same,probe-labelled cysteine peptide fold change,50 µM,-0.0734
ZC3H7A_Q8IWR0_894_VFHTEDDQYCWQHR (UniProt Q8IWR0),probe-labelled cysteine peptide fold change,10 µM,0.0296
same,probe-labelled cysteine peptide fold change,50 µM,-0.0746
XPO7_Q9UIA9_767_AIELWYHDPACTTPVLK (UniProt Q9UIA9),probe-labelled cysteine peptide fold change,10 µM,0.0335
same,probe-labelled cysteine peptide fold change,50 µM,0.142
XRN2_Q9H0D6_276_DCEGLPR (UniProt Q9H0D6),probe-labelled cysteine peptide fold change,10 µM,-0.0461
same,probe-labelled cysteine peptide fold change,50 µM,0.102
ZCCHC3_Q9NUD5_299_CEIELR (UniProt Q9NUD5),probe-labelled cysteine peptide fold change,10 µM,0.111
same,probe-labelled cysteine peptide fold change,50 µM,0.331
ZC3H11A_O75152_209_QGECLNFGIK (UniProt O75152),probe-labelled cysteine peptide fold change,10 µM,0.0341
same,probe-labelled cysteine peptide fold change,50 µM,-0.0162
ZBTB7B_O15156_23_GSPEDDLIGIPFPDHSSELLSCLNEQR (UniProt O15156),probe-labelled cysteine peptide fold change,10 µM,-0.00361
same,probe-labelled cysteine peptide fold change,50 µM,-0.227
YWHAE_P62258_97+98_LICCDILDVLDK (UniProt P62258),probe-labelled cysteine peptide fold change,10 µM,-0.0436
same,probe-labelled cysteine peptide fold change,50 µM,0.12
ZFAND1_Q8TCF1_79_ELVAVICPYCEK (UniProt Q8TCF1),probe-labelled cysteine peptide fold change,10 µM,-0.0161
same,probe-labelled cysteine peptide fold change,50 µM,0.168
ZFAND1_Q8TCF1_184_SKPMFFCHR (UniProt Q8TCF1),probe-labelled cysteine peptide fold change,10 µM,-0.134
same,probe-labelled cysteine peptide fold change,50 µM,-0.174
XPR1_Q9UBH6_62_FFQTCEK (UniProt Q9UBH6),probe-labelled cysteine peptide fold change,10 µM,0.00807
same,probe-labelled cysteine peptide fold change,50 µM,0.152
YES1_P07947_255_LTTVCPTVKPQTQGLAK (UniProt P07947),probe-labelled cysteine peptide fold change,10 µM,-0.0129
same,probe-labelled cysteine peptide fold change,50 µM,-0.34
ZC3H14_Q6PJT7_607_YWPACK (UniProt Q6PJT7),probe-labelled cysteine peptide fold change,10 µM,-0.0482
same,probe-labelled cysteine peptide fold change,50 µM,0.0469
ZC3H7A_Q8IWR0_921_YMNGTCPEGNSCK (UniProt Q8IWR0),probe-labelled cysteine peptide fold change,10 µM,-0.109
same,probe-labelled cysteine peptide fold change,50 µM,-0.137
YWHAG_P61981_112_NCSETQYESK (UniProt P61981),probe-labelled cysteine peptide fold change,10 µM,0.0918
same,probe-labelled cysteine peptide fold change,50 µM,-0.0332
XPO7_Q9UIA9_331_ILENPQSLSDPNNYHEFCR (UniProt Q9UIA9),probe-labelled cysteine peptide fold change,10 µM,0.0454
same,probe-labelled cysteine peptide fold change,50 µM,0.164
XPO6_Q96QU8_159_TTSEELACPR (UniProt Q96QU8),probe-labelled cysteine peptide fold change,10 µM,0.0366
same,probe-labelled cysteine peptide fold change,50 µM,-0.0732
ZC3HAV1_Q7Z2W4_867_FTEGNITYTSPPPQFDSCVDTR (UniProt Q7Z2W4),probe-labelled cysteine peptide fold change,10 µM,-0.0598
same,probe-labelled cysteine peptide fold change,50 µM,0.0873
XPO1_O14980_528_DLLGLCEQK (UniProt O14980),probe-labelled cysteine peptide fold change,10 µM,0.0248
same,probe-labelled cysteine peptide fold change,50 µM,0.0262
XPO6_Q96QU8_22_ALESLMTEFFHDCTTNER (UniProt Q96QU8),probe-labelled cysteine peptide fold change,10 µM,0.0182
same,probe-labelled cysteine peptide fold change,50 µM,0.00177
XRN1_Q8IZH2_1104_PLEQQHGVIPDRDAEFCLFDR (UniProt Q8IZH2),probe-labelled cysteine peptide fold change,10 µM,-0.142
same,probe-labelled cysteine peptide fold change,50 µM,0.418
ZDHHC13_Q8IUH4_51_EALPLIEDSSNCDIVK (UniProt Q8IUH4),probe-labelled cysteine peptide fold change,10 µM,0.118
same,probe-labelled cysteine peptide fold change,50 µM,-0.32
XPO6_Q96QU8_299_MASVNGSSQNCVSGQER (UniProt Q96QU8),probe-labelled cysteine peptide fold change,10 µM,0.0986
same,probe-labelled cysteine peptide fold change,50 µM,0.0125
ZCCHC3_Q9NUD5_385_RGHAFAQCPK (UniProt Q9NUD5),probe-labelled cysteine peptide fold change,10 µM,-0.0589
same,probe-labelled cysteine peptide fold change,50 µM,0.0741
ZFAND1_Q8TCF1_15_AELDIGQHCQVEHCR (UniProt Q8TCF1),probe-labelled cysteine peptide fold change,10 µM,0.0342
same,probe-labelled cysteine peptide fold change,50 µM,0.0973
XPO7_Q9UIA9_1038_QQAMHLCFENLMEGIER (UniProt Q9UIA9),probe-labelled cysteine peptide fold change,10 µM,0.0777
same,probe-labelled cysteine peptide fold change,50 µM,0.0769
XPNPEP3_Q9NQH7_503_EMNDIEQICSQAS (UniProt Q9NQH7),probe-labelled cysteine peptide fold change,10 µM,0.000246
same,probe-labelled cysteine peptide fold change,50 µM,-0.0369
XPO5_Q9HAV4_1157_LIAGCIGK (UniProt Q9HAV4),probe-labelled cysteine peptide fold change,10 µM,0.143
same,probe-labelled cysteine peptide fold change,50 µM,0.186

# Part of the list above, bar-delimited:
target | measurement | setting | value
YWHAG_P61981_112_NCSETQYESK (UniProt P61981) | probe-labelled cysteine peptide fold change | 50 µM | -0.0332
XPO7_Q9UIA9_331_ILENPQSLSDPNNYHEFCR (UniProt Q9UIA9) | probe-labelled cysteine peptide fold change | 10 µM | 0.0454
XRN1_Q8IZH2_1104_PLEQQHGVIPDRDAEFCLFDR (UniProt Q8IZH2) | probe-labelled cysteine peptide fold change | 10 µM | -0.142
XPNPEP3_Q9NQH7_503_EMNDIEQICSQAS (UniProt Q9NQH7) | probe-labelled cysteine peptide fold change | 10 µM | 0.000246
